These are yes or no findings as the source states them, for the method shown. In cells and extracts the contact can be indirect.
Tests used:
Assay in all cases: co-IP; chondrocytes transfected with p3XFLAG-CMV-7.1-ACVR2B or muACVR2B for 36 h, activin A-overexpression conditions; lysis buffer 150 mM NaCl, 1% NP-40, 50 mM Tris, 0.2% SDS, 5 mM NaF; anti-FLAG overnight at 4 °C, protein A/G plus beads 6 h at 4 °C; blot for NOX4
[1] = molecular target: muACVR2B Mu1 (G373 changed to K373) (UniProt Q13705)
[2] = molecular target: muACVR2B Mu2 (G399 changed to K399) (UniProt Q13705)
[3] = molecular target: muACVR2B Mu3 (Q401 changed to K401) (UniProt Q13705)

Sequences of proteins named here, by UniProt entry; tags and fusion partners are left off. A change or cut given only in a name is not applied to a line headed by its entry.
UniProt Q13705: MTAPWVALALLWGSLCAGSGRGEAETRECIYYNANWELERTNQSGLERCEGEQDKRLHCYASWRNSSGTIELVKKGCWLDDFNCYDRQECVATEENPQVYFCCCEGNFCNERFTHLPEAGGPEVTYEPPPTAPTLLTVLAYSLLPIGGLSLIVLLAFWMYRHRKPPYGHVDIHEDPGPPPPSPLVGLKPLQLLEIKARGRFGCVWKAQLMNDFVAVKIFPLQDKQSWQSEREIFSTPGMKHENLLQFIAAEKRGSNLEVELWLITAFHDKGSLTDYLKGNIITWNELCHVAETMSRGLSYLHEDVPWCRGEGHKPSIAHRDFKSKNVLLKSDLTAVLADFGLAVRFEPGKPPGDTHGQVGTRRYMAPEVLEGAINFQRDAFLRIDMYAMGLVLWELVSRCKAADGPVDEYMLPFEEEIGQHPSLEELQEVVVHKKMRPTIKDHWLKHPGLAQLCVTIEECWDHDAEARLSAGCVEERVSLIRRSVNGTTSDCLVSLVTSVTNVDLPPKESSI

Measured: binding

B1: NADPH oxidase 4 (Nox4), endogenous (protein, UniProt Q9JHI8 1-578)
chain: MAVSWRSWLANEGVKHLCLLIWLSLNVLLFWKTFLLYNQGPEYYYIHQMLGLGLCLSRASASVLNLNCSLILLPMCRTVLAYLRGSQKVPSRRTRRLLDKSKTLHITCGVTICIFSGVHVAAHLVNALNFSVNYSEDFLELNAARYQNEDPRKLLFTTIPGLTGVCMVVVLFLMVTASTYAIRVSNYDIFWYTHNLFFVFYMLLLLHVSGGLLKYQTNVDTHPPGCISLNQTSSQNMSIPDYVSEHFHGSLPRGFSKLEDRYQKTLVKICLEEPKFQAHFPQTWIWISGPLCLYCAERLYRCIRSNKPVTIISVINHPSDVMELRMIKENFKARPGQYIILHCPSVSALENHPFTLTMCPTETKATFGVHFKVVGDWTERFRDLLLPPSSQDSEILPFIHSRNYPKLYIDGPFGSPFEESLNYEVSLCVAGGIGVTPFASILNTLLDDWKPYKLRRLYFIWVCRDIQSFQWFADLLCVLHNKFWQENRPDFVNIQLYLSQTDGIQKIIGEKYHTLNSRLFIGRPRWKLLFDEIAKCNRGKTVGVFCCGPSSISKTLHSLSNRNNSYGTKFEYNKESFS
no binding: [1] | [2] | [3]
